The values below come from patent publication US20260070940A1.

For this experiment, the target named is Biotinylated FAP-avi-His on Sol-R2 streptavidin beads (species not told). Nature of the experiment: mix-and-read bead assay (Mirrorball), FAP-avi-His on streptavidin beads, bacterial supernatant, FITC anti-FLAG.

These are yes or no findings as the source states them, for the method shown. Binding can be weak; no strength is given.

B1: SEQ ID NO 263 (VHH)
VHH: EVQLVESGGGLVQPGGSLRLSCAASGFNIKDTCIGWVRRAPGKEEELVANICGHIGSTRYADSVKGRFTISADTSKNTAYLQMNSLRAEDTAVYYCANSYTYSYKYWGQGTTVTVSS
For B1, the binding entry is on record as “binds”.

B2: SEQ ID NO 271 (VHH)
VHH: EVQLVESGGGLVQPGGSLRLSCAASGFNIKDSSTYIGWVRRAPGKEEELVARIQCSSGSTRYADSVKGRFTISCDTSKNTAYLQMNSLRAEDTAVYYCAGRQSYNYGYIYWGQGTTVTVSS
As for B2, the binding entry is on record as “binds”.

B3: SEQ ID NO 279 (VHH)
VHH: EVQLVESGGGLVQPGGSLRLSCAASGFNIKDSSTYIGWVRRAPGKEEELVARIQCSAGSTRYADSVKGRFTISCDTSKNTAYLQMNSLRAEDTAVYYCAGRSARSYSYIYWGQGTTVTVSS
In the case of B3, the binding entry is listed as “binds”.

B4: SEQ ID NO 265 (VHH)
VHH: EVQLVESGGGLVQPGGSLRLSCAASGFNIKDTCIGWVRRAPGKEEELVANICGTTGSTRYADSVKGRFTISADTSKNTAYLQMNSLRAEDTAVYYCANSWTIYRYKYWGQGTTVTVSS
B4: the binding entry is “binds”.

B5: SEQ ID NO 262 (VHH)
VHH: EVQLVESGGGLVQPGGSLRLSCAASSFNIKDTYIGWVRRAPGKEEELVAKIFRCSDGRTRYADSVKGRFTISCDTSKNTAYLQMNSLRAEDTAVYYCANIYKTHYTYWGQGTTVTVSS
For the molecule B5, the binding entry is reported as “binds”.

B6: SEQ ID NO 260 (VHH)
VHH: EVQLVESGGGLVQPGGSLRLSCAASGFNIKDTCIGWVRRAPGKEEELVANICITDGKTRYADSVKGRFTISADTSKNTAYLQMNSLRAEDTAVYYCAYYSKYIGYRYWGQGTTVTVSS
For B6, the binding entry is on record as “binds”.

B7: SEQ ID NO 261 (VHH)
VHH: EVQLVESGGGLVQPGGSLRLSCAASGFNIKDTCIGWVRRAPGKEEELVANICQSGGYTRYADSVKGRFTISADTSKNTAYLQMNSLRAEDTAVYYCARYHKGVGYQYWGQGTTVTVSS
Consider B7, for which the binding result is given as “binds”.
